Structures are written as SMILES. Where “and” joins values, the source holds several entries; their conditions need not be identical. Equal entries are not always repeated.

Amino acid sequences for entries named in this document (tags omitted).
UniProt P23977, whole entry: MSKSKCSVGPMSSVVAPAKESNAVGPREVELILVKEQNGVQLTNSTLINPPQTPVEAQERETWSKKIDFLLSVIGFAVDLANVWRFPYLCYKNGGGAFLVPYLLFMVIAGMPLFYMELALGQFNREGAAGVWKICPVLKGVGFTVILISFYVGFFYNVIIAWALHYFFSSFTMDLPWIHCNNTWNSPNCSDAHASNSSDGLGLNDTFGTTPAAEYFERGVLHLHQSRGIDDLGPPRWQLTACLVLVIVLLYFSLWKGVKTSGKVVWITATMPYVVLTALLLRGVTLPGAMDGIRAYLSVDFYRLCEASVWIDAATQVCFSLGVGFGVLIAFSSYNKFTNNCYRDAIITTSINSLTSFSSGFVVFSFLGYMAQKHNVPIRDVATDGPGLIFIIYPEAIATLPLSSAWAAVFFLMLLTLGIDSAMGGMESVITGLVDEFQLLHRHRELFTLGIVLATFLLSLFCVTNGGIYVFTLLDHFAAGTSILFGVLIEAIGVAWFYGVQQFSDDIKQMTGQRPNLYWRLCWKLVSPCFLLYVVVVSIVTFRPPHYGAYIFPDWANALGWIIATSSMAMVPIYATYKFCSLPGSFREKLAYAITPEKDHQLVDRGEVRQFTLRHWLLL

The experiment has as its target Sodium-dependent dopamine transporter (Rattus norvegicus, UniProt P23977).

On to `CNCCCC12CCC(c3ccccc31)c1ccccc12` [Ludiomil], for which the Ki is 1210 nM and > 10000 nM and 1190 nM.
